Data taken from PMC11580427.
No constants are given. Whether binding was seen depends on the method and setting. In cells and extracts the contact can be indirect. A result given as binding can be weak or reduced; the word gives no strength.

Amino acid sequences for entries named in this document (tags omitted). A change or cut given only in a name is not applied to a line headed by its entry.
UniProt E2RTP0: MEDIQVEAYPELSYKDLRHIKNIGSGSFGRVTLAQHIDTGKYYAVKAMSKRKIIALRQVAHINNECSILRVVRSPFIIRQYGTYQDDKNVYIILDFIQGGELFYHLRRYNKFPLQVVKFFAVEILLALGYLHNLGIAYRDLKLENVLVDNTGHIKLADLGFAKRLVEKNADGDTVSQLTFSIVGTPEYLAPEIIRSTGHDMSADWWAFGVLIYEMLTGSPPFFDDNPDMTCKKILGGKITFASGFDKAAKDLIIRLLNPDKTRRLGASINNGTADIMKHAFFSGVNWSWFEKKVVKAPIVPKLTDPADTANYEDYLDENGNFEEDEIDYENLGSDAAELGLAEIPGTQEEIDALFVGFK
UniProt Q2VWB6: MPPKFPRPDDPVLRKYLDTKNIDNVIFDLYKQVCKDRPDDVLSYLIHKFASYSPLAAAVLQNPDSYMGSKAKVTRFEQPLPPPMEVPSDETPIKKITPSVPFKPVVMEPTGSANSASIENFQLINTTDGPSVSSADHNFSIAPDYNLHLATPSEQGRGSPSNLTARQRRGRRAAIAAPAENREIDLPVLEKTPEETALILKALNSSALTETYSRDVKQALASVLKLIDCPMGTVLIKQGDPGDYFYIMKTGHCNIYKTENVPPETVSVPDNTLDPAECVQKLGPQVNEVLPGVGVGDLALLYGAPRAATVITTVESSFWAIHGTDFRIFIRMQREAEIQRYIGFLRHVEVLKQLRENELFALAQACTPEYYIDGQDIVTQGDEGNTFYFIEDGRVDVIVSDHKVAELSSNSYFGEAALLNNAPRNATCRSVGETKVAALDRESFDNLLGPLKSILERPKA

Target: Giardia lamblia PKA catalytic domain (GlPKAc) tagged with cHalo (156-257) (Giardia lamblia) (UniProt E2RTP0)
Test: split reporter; Split-Halo in live Giardia cells: GlPKAr-nHalo (1-155) and GlPKAc-cHalo (156-257) under native promoters; 20 nM Janelia Fluor HaloTag ligand; live imaging of trophozoites and at 0, 2 and 4 h post-exposure to encystation medium

In the case of “Giardia lamblia PKA regulatory domain (GlPKAr) tagged with nHalo (1-155) (from UniProt Q2VWB6)”, the binding is reported as “binds”.
